These are yes or no findings as the source states them, for the method shown. Binding seen in cells or lysates may run through a third protein. Some results given as binding are weak or reduced against the parent protein; the word gives no strength.
B1: flotillin-1 (protein, UniProt O08917 1-428)
chain: MFFTCGPNEAMVVSGFCRSPPVMVAGGRVFVLPCIQQIQRISLNTLTLNVKSEKVYTRHGVPISVTGIAQVKIQGQNKEMLAAACQMFLGKTEAEIAHIALETLEGHQRAIMAHMTVEEIYKDRQKFSEQVFKVASSDLVNMGISVVSYTLKDIHDDQDYLHSLGKARTAQVQKDARIGEAEAKRDAGIREAKAKQEKVSAQCLSEIEMAKAQRDYELKKATYDIEVNTRRAQADLAYQLQVAKTKQQIEEQRVQVQVVERAQQVAVQEQEIARREKELEARVRKPAEAERYRLERLAEAEKAQLIMQAEAEAESVRMRGEAEAFAIGARARAEAEQMAKKAEAFQMYQEAAQLDMLLEKLPQVAEEISGPLTSANKITLVSSGSGTMGAAKVTGEVLDILSRLPESVERLTGVSISQVNHNKPLRTA

Sequences of proteins named here, by UniProt entry; tags and fusion partners are left off.
UniProt Q08857: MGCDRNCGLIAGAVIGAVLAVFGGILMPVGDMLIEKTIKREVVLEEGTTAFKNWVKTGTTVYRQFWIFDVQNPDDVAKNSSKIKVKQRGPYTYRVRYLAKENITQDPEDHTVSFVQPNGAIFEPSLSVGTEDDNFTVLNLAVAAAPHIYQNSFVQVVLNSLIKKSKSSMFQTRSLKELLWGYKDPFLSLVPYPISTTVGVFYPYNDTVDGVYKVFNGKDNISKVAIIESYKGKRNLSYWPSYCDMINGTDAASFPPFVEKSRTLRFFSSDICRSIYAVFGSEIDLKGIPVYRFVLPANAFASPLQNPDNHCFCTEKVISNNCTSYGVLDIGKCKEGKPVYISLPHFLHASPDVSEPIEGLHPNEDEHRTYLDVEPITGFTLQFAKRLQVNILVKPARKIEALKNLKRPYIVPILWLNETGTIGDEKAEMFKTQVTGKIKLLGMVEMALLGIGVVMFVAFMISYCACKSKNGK
UniProt Q62035: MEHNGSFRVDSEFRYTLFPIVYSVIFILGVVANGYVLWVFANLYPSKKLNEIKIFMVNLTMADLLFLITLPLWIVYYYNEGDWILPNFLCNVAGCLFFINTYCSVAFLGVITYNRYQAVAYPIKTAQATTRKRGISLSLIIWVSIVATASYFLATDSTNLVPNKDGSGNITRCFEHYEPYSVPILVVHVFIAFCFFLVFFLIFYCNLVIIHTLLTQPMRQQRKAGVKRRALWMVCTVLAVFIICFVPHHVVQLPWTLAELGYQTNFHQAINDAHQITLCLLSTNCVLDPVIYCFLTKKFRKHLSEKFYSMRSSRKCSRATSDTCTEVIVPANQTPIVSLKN

Assays:
[1] = target: CD36 (mouse (endogenous in BMDM)) (UniProt Q08857); test: co-IP; post-nuclear lysates of macrophages, resting or treated with oxLDL (30 ug/mL) or PAF (10^-7 mol/L) for 20 min; lysed on ice in HEPES buffer with 1 mmol/L CaCl2, 1 mmol/L MgCl2, 1% Triton X-100; precipitated overnight with rabbit anti-PAFR (protein A-Sepharose) or mouse IgA anti-CD36 (protein G-Sepharose); immunoblot for PAFR, CD36 or flotillin-1
[2] = target: receptor for platelet-activating factor (PAFR) (mouse (endogenous in BMDM)) (UniProt Q62035); test: as above

Row | Molecule | binding [1] | binding [2]
1 | receptor for platelet-activating factor (PAFR) (from UniProt Q62035 1-341) | binds | –
2 | B1 | binds | binds

Reference: publication PMC3793910
